From PubChem BioAssay AID485349 (National Center for Advancing Translational Sciences (NCATS), 2010)
Among all 320,000 compounds or so, about 620 (0.19%) were called active. Inconclusive means that the source gave no clear call. Such entries were picked first, then a sample of the others. The call rests on the fitted dose curve; in most records, active means well fitted activation curve with a large enough effect; inconclusive means small, poorly fitted or top-dose-only effect; inactive means no such curve, though single readings can be large or run the other way. Where the call is inconclusive, the potency comes from a doubtful curve fit.

Assay: qHTS Assay for Identifying a Potential Treatment of Ataxia-Telangiectasia; further: nearly all actives have a fitted effect of over 45% in size
Conditions: […] A-T fibroblasts, KAP-1 phosphorylation AlphaLISA, neocarzinostatin DNA damage 30 min before lysis; series mostly up to 57.5 µM
How it was run: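 ATM-like activity read as KAP-1 phosphorylation via AlphaLISA donor/acceptor antibody pairs after lysis and 6 hr at 25C. Cells were ATM-null patient fibroblasts ([…], hTERT), dosed 60 min, then exposed to the DSB inducer NCS for 30 min.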
Potency means the concentration at half of the fitted maximal effect.

| Compound | Potency |
| --- | --- |
| C1=C(N2CCOCC2)/C(=C/c2nc3ccccc3[nH]2)CC1 | inconclusive: 0.708 µM [activator, full curve, poor fit] |
| COc1ccc(S(=O)(=O)N(NC2=NS(=O)(=O)c3ccccc32)C(=O)C(C)C)cc1 | inactive |
| CCc1ccccc1NS(=O)(=O)c1cc2c(cc1C)n(C)c(=O)c(=O)n2C | inconclusive: 7.08 µM [activator, single point] |
| CCC[C@@H]1CCCC/C=C\CCCC(=O)OCCN1C(=O)OC(C)(C)C | active: 25.1 µM |
| COc1cc(O)c(C(CCN2CCOCC2)c2ccc3c(c2)OCO3)c(OC)c1 (configuration not stated) | inactive |
| Cc1ccc(Cn2nnnc2CN2CCC(c3nc4ccc(Cl)cc4[nH]3)CC2)cc1 | inactive |
| CCOC(=O)c1cn(-c2nc(-c3ccc(Cl)c(Cl)c3)cs2)c2c(F)c(N3CCOCC3)c(F)cc2c1=O | inactive |
| COCCCNC(=O)CC(NS(=O)(=O)c1ccc(C)cc1)c1ccco1 (configuration not stated) | inactive |
| CCN(CC)CCNC(=O)c1ccc(NC2=NC3CS(=O)(=O)CC3S2)cc1 (configuration not stated) | inconclusive: 5.62 µM [activator, single point] |
| COc1ccc(/C(N)=N/OC(=O)CN(C)S(=O)(=O)c2ccccc2)cc1 | inactive |
| Cn1c(NC(=O)c2ccc(F)cc2)nc2ccccc21 | inactive |
| CCOC(=O)c1cnc(-c2ccccc2)nc1-c1ccccc1 | inconclusive: 22.4 µM [activator, single point] |
| O=C1c2ccccc2C(=O)N1CCCc1cn(C[C@H]2CC[C@H](Cn3cc(CCCN4C(=O)c5ccccc5C4=O)nn3)O2)nn1 | inactive |
| Cc1ccc(N(CC(O)CN2C(=O)NC(C)(C)C2=O)S(=O)(=O)c2ccc(C)cc2)cc1 (configuration not stated) | inconclusive: 0.708 µM [activator, full curve, poor fit] |
| Cc1cc(=O)oc2cc3c(cc12)OCCN3 | inconclusive: 31.6 µM [activator, partial curve] |
| COc1ccc(-c2nc3cnccn3c2NCc2ccccc2)cc1SC1CCCCC1 | inconclusive: 20 µM [activator, partial curve] |
| NC(=O)CCCc1nc(-c2ccccc2Cl)no1 | inconclusive: 2.82 µM [activator, full curve, poor fit] |
| CCc1ccc(-c2cc3c(=O)n(CC(=O)NCCCN4CCC(Cc5ccccc5)CC4)nc(C)n3n2)cc1 | inactive |
| CC(C)Oc1ccc(NC(=O)c2ccncc2)cc1 | inactive |
| Cc1cc(NC(=O)Nc2ccccc2)n(C(C)(C)C)n1 | inconclusive: 0.708 µM [activator, partial curve, poor fit] |
| Nc1ccc(-c2nc3ccccc3o2)cc1 | inconclusive: 4.47 µM [activator, full curve, poor fit] |
| C=CCSCC1Nc2cc(Cl)c(S(N)(=O)=O)cc2S(=O)(=O)N1 (configuration not stated) | inconclusive: 39.8 µM [activator, single point] |
| O=[N+]([O-])c1cccc(C=Nc2cccc3ccccc23)c1O | inconclusive: 3.98 µM [activator, partial curve] |
| Cc1ccc(/C=N/N(C)S(=O)(=O)c2ccc(C)cc2)cc1 | active: 28.2 µM |

| Compound | Potency |
| --- | --- |
| COc1ccc(Cl)cc1NC(=O)CN(C)CC(=O)Nc1ccc(C)cc1Br | inactive |
| CCc1ccccc1-n1c(-c2ccncc2)n[nH]c1=S | inconclusive: 39.8 µM [activator, single point] |
| CCC(=O)NC1=C(Cl)C(=O)C(NC(=O)CC)=C(Cl)C1=O | inconclusive: 3.55 µM [activator, partial curve] |
| CC(C)Sc1nc2c(cnn2-c2ccccc2)c(=O)[nH]1 | inactive |
| Cn1c(CNC(=O)CCNC(=O)c2cccc(Br)c2)cc(=O)n(C)c1=O | inconclusive: 1.41 µM [activator, partial curve, poor fit] |
| CC(C)(C)C(=O)COC(=O)C1=NN(c2ccccc2)C(=O)CC1 | inconclusive: 44.7 µM [activator, partial curve, poor fit] |
| O=C(OCc1ccc([N+](=O)[O-])cc1)C1CC(=O)N(CCc2ccccc2)C1 (configuration not stated) | inconclusive: 7.08 µM [activator, partial curve] |
| CCOC(=O)c1cccc(N2C(=O)C3C4C=CC(CC4)C3C2=O)c1 (configuration not stated) | inconclusive: 0.708 µM [activator, full curve] |
| CC(C)CNC(=S)N(CCCN(C)C)Cc1cc2cc3c(cc2[nH]c1=O)OCCO3 | inactive |
| CC(=O)c1nn(-c2cccc(Br)c2)cc1C(=O)c1cccc2ccccc12 | inconclusive: 7.08 µM [activator, single point] |
| CC(=O)NCN1CCN(CNC(C)=O)CC1 | inactive |
| C=C(C)C(=O)O[C@H]1C/C(C)=C\C(=O)/C=C(\C)[C@H](O)[C@@H]2OC(=O)C(=C)[C@@H]21 | active: 39.8 µM |
| O=C(O)CNC(=O)c1ccc(OC(F)F)cc1 | inconclusive: 3.16 µM [activator, single point] |
| CCOc1cccc(/C=C/c2ccc3cccc(O)c3n2)c1OC | active: 7.94 µM |
| Cc1cc(NC(=O)c2sccc2C)n(-c2nc3ccccc3[nH]2)n1 | inconclusive: 35.5 µM [activator, single point] |
| CC(C)n1c(CN(C)Cc2ccccc2)nc2c1c(=O)n(C)c(=O)n2C | inconclusive: 2.82 µM [activator, full curve, poor fit] |
| CSc1ncnc2c1cnn2-c1ccc(C)cc1C | inactive |
| Cc1ccsc1C(=O)NNC(=O)COc1ccccc1Cl | inactive |
| CCc1ccc(/C=c2\s/c(=C\C(=O)C(C)(C)C)[nH]c2=O)cc1 | inconclusive: 39.8 µM [activator, partial curve, poor fit] |
| Cc1c(Cl)c([N+](=O)[O-])nn1CCCC(=O)O | inconclusive: 0.708 µM [activator, full curve, poor fit] |
| CN=C1S/C(=C\c2ccc(O)c(Br)c2)C(=O)N1C | inconclusive: 39.8 µM [activator, single point] |
| COC(=O)c1ccccc1OC(=O)c1cc2ccccc2oc1=O | inconclusive: 0.891 µM [activator, full curve, poor fit] |
| CC1C(=O)CC(c2ccccc2)N(C)C1c1ccccc1 (configuration not stated) | inconclusive: 39.8 µM [activator, single point] |
| CN1CCc2c(n(CC(O)CNCc3ccccc3)c3ccccc23)C1=O (configuration not stated) | inconclusive: 28.2 µM [activator, single point] |

| Compound | Potency |
| --- | --- |
| O=C(CCc1ccccc1)Nc1cccc([N+](=O)[O-])c1 | inactive |
| CCCCCCCCCC(=O)O | inactive |
| CCOc1ccc(C2C(C(=O)OC)=CN(C(C)c3ccccc3)C=C2C(=O)OC)cc1 (configuration not stated) | inconclusive: 20 µM [activator, partial curve] |
| CC1CCCC(C)N1CCCNC(=O)Cn1ncc2c3ccccc3n(C)c2c1=O (configuration not stated) | active: 7.08 µM |
| Cc1ccc(OCCCCN2CCc3ccccc3C2)c(C)c1 | active: 35.5 µM |
| COc1c(N2CCN(C(=S)NC3CC4CCC3C4)C(C)C2)c(F)cc2c(=O)c(C(=O)O)cn(C3CC3)c12 (configuration not stated) | active: 28.2 µM |
| O=C1c2cccc3cccc(c23)C(=O)N1Cc1cccnc1 | inconclusive: 3.16 µM [activator, full curve, poor fit] |
| CCOC(=O)COc1nc(-c2ccccc2)cc(-c2ccco2)c1C#N | inconclusive: 0.631 µM [activator, full curve, poor fit] |
| O=C(c1cccc(F)c1)N1CCN(C(=O)c2nn3cccnc3c2Cl)CC1 | inconclusive: 1 µM [activator, partial curve] |
| Cc1cccc(-c2nc(CS(=O)CC(=O)NC3CCCC3)c(C)o2)c1 (configuration not stated) | inactive |
| Cc1ccc(-c2cc(C(F)(F)F)c(C#N)c(=O)[nH]2)cc1 | inconclusive: 35.5 µM [activator, partial curve] |
| CNC(=O)/C(C#N)=C/c1cccc(Oc2ccccc2)c1 | inconclusive: 35.5 µM [activator, single point] |
| Cc1cc(=O)[nH]c(Nc2cccc(C(F)(F)F)c2)n1 | inactive |
| Cc1ccc2nc(-c3ccc(NS(=O)(=O)c4c(C)n(C)c(=O)n(C)c4=O)cc3)sc2c1 | inactive |
| COc1cc(CN(C)Cc2nc3cc(C(F)(F)F)ccc3c(=O)[nH]2)ccc1OC(F)F | inconclusive: 8.91 µM [activator, full curve, poor fit] |
| COC(=O)c1scc(C)c1NC(=O)/C=C/C(=O)O | inconclusive: 31.6 µM [activator, single point] |
| Cn1nc(-c2ccc3c(c2)OCCO3)c2ccccc2c1=O | inactive |
| Cc1ccc(-c2nc3cnccn3c2Nc2c(C)cccc2C)o1 | active: 15.8 µM |
| Cc1[nH]c2ccc(F)cc2c1CCN(Cc1cccnc1)C(=S)Nc1cccc(F)c1 | inactive |
| CC(=O)N1N=C(c2ccncc2)OC1(Cc1ccccc1)Cc1ccccc1 | inconclusive: 22.4 µM [activator, partial curve, poor fit] |
| COCc1cc(C)nc2sc(C(=O)OC(C)C)c(N)c12 | inconclusive: 35.5 µM [activator, single point] |
| Cc1cc(C(=O)COC(=O)c2ccccc2Br)c(C)n1CC1CCCO1 (configuration not stated) | inconclusive: 44.7 µM [activator, partial curve, poor fit] |
| Cc1nn2c(=O)cc(CSc3nc4ccccc4[nH]3)nc2s1 | inconclusive: 0.708 µM [activator, full curve, poor fit] |
| O=S(=O)(c1ccc2c(c1)OCO2)N1CCN(c2nnnn2-c2ccccc2)CC1 | inconclusive: 35.5 µM [activator, partial curve, poor fit] |

Rewritten tab-delimited: entries from further up.
Compound	Potency
O=C1c2cccc3cccc(c23)C(=O)N1Cc1cccnc1	inconclusive: 3.16 µM [activator, full curve, poor fit]
Cc1cccc(-c2nc(CS(=O)CC(=O)NC3CCCC3)c(C)o2)c1 (configuration not stated)	inactive
COc1cc(CN(C)Cc2nc3cc(C(F)(F)F)ccc3c(=O)[nH]2)ccc1OC(F)F	inconclusive: 8.91 µM [activator, full curve, poor fit]
Cn1nc(-c2ccc3c(c2)OCCO3)c2ccccc2c1=O	inactive
Cc1ccc(-c2nc3cnccn3c2Nc2c(C)cccc2C)o1	active: 15.8 µM
Cc1[nH]c2ccc(F)cc2c1CCN(Cc1cccnc1)C(=S)Nc1cccc(F)c1	inactive
